Assay results taken from publication PMC6445166, “Subnanomolar indazole-5-carboxamide inhibitors of monoamine oxidase B (MAO-B) continued: indications of iron binding, experimental evidence for optimised solubility and brain penetration” (Journal of Enzyme Inhibition and Medicinal Chemistry, 2017).

How the values were obtained:
[1] = Metal binding studies (UV-visible), Fe2+; format: physicochemical; details: compound 50 μM in 50% DMSO, FeSO4 added
[2] = Metal binding studies (UV-visible), Fe3+; format: physicochemical; details: compound 50 μM in 50% DMSO, FeCl3 added

| Compound | ability to bind Fe^2+ (UV–visible absorbance change on FeSO4 addition) [1] | ability to bind Fe^3+ (UV–visible absorbance change on FeCl3 addition) [2] |
| --- | --- | --- |
| Cn1ncc2cc(C(=O)Nc3ccc(F)c(Cl)c3)ccc21 [NTZ-1441] | did not have the ability to bind iron cations | did not have the ability to bind iron cations |
| O=C(Nc1ccc(Cl)c(Cl)c1)c1ccc2[nH]ncc2c1 [NTZ-1006] | slight increase of the maximum absorbance; also recorded: selectively bind Fe^2+ ions | not modified |
| Cc1c(O)c(=O)ccn1C [DFP, Deferiprone, reference compound] | significantly changed | higher chelating affinity |
| O=C(Nc1ccc(F)c(Cl)c1)c1ccc2[nH]ncc2c1 [NTZ-1032] | slight increase of the maximum absorbance; also recorded: selectively bind Fe^2+ ions | not modified |

“Also recorded” adds a separate entry of the source.
